According to PMC8211912:
These are yes or no findings as the source states them, for the method shown. Sequences can lack the tags named with a protein.

Target: T1, AtSYP81 (yeast two-hybrid fusion) (Arabidopsis thaliana) (UniProt P59277)
T1 sequence: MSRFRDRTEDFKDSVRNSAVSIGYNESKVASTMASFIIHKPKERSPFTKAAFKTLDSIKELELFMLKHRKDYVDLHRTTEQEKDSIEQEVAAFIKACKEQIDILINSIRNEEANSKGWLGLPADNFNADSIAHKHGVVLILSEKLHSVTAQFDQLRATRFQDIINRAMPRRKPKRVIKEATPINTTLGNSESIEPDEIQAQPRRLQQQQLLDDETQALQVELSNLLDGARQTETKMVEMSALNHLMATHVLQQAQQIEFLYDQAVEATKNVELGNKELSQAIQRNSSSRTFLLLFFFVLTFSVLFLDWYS
Experiment: two-hybrid; Cytosolic regions in pGADT7 or pGBKT7, paired constructs in S. cerevisiae AH109; selected on SD/-Leu/-Trp, interactions examined on SD/-Leu/-Trp/-His/-Ade

- binding: no binding
Substance: AtSEC22 cytosolic region (yeast two-hybrid fusion) (Arabidopsis thaliana) (domain or fragment)
